In PubChem BioAssay AID2685 (National Center for Advancing Translational Sciences (NCATS), 2010):
Some of the results follow. Further columns of the screen follow, without active or inactive calls. Compounds called inactive in the main read-out are mostly missing here. Potencies come from curve fits of mixed quality, noted in brackets.

Assay: qHTS Assay for Lipid Storage Modulators in Drosophila S3 Cells;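 as to cell number change: cells counted by Cell Tracker Red CMTPX staining in the red channel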
Settings: BODIPY lipid droplet fluorescence, 18-24 h; for cell number change: measured here: cell count max response, cells fed with added oleic acid
Procedure, shortened: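 Laser-scanning cytometry quantifies lipid droplet accumulation (500–530 nm total intensity; droplet/cell object ratio) in oleic acid-fed (400 uM added) Drosophila S3 cells treated with a concentration series. 20 uM Triacsin C defined 100% inhibition.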

[1] = measured here: cell number channel AC50, cells fed with added oleic acid
[2] = measured here: lipid fluorescence (Fed channel) AC50, cells fed with added oleic acid

Compound	cell number change [%]	AC50 [1]	AC50 [2]
C=CCn1nnnc1SCC(=O)Nc1cccc(C(F)(F)F)c1	17.3		
CCN(C(=O)Cn1cnc2ccccc2c1=O)C1CCS(=O)(=O)C1 (stereo unspecified)	-30.9	2060 nM [falling, full curve]	1840 nM [falling, full curve]
COC(=O)c1ccc2c(=O)[nH]c(CN3c4ccccc4CC3C)nc2c1 (stereo unspecified)	0.0126	1300 nM [rising, partial curve]	
C/C(=N/NC(=O)c1ccc(Br)o1)c1cccc(NC(=O)c2ccc(C)o2)c1	7.28		58 nM [rising, full curve, poor fit]
O=C(Nc1ccccc1N1CCCC1)C1CCN(S(=O)(=O)c2ccccc2)CC1	-7.56		16400 nM [falling, partial curve]
COc1ccc(-c2nc3ccc(N4CCCC4)cc3c(=O)[nH]2)cc1OC	-8.2		
CCOc1ccc(NC(=O)CSc2nnc(C3CC3)n2C2CC2)cc1	-13.2		51.7 nM [falling, full curve, poor fit]
CC[C@@]12C(=O)N(c3cccc(Br)c3)C(=O)N1[C@H](c1ccc(F)cc1)[C@@H]1C(=O)N(C3CCCCC3)C(=O)[C@@H]12	13.7		4.61 nM [falling, full curve, poor fit]
O=C(N[C@H]1CCC(=O)N(CCSc2ccc(Br)cc2)CC1)OCc1ccccc1	3.05		
Cc1cc(NC(=O)c2cccnc2)ccc1NC(=O)c1ccco1	9.59		5800 nM [rising, single point]
CCOC(=O)C1=C(C)NC2=C(C(=O)c3ccccc32)C1c1cccc2ccccc12 (stereo unspecified)			14600 nM [falling, partial curve]
COc1cc(NC(=O)c2ccccc2)ccc1NC(=O)Cc1ccccc1	-26.2		731 nM [rising, single point]
CCCOc1ccc(C=Nc2ccc(OC)c(S(=O)(=O)N3CCOCC3)c2)c(O)c1	-24.1		
CCCSc1nnc(N2C(=O)CC(c3ccsc3)C3=C2CCCC3=O)s1 (stereo unspecified)	37		
CCN1C(=O)/C(=C/c2ccc(OC)c(OC)c2)N=C1SCC(=O)NCc1ccco1	21		6510 nM [falling, single point]
CCOc1ncccc1C(=O)OCC(=O)N(CC(C)C)C1CCS(=O)(=O)C1 (stereo unspecified)	23.8	1840 nM [rising, full curve, poor fit]	
Cc1ccn(CC(=O)O)c(=O)c1	-3.34		8200 nM [falling, partial curve, poor fit]
O=C(Nc1ccc(Cl)c(S(=O)(=O)N2CCCCC2)c1)c1ccco1			461 nM [falling, single point]
CN(CC1CCOCC1)C(=O)CC1C(=O)NCCN1Cc1cccc(F)c1 (stereo unspecified)	31.9	16400 nM [rising, single point]	20600 nM [rising, single point]

Compound	cell number change [%]	AC50 [1]	AC50 [2]
c1ccc(COc2ccc(OCCCN3CCCCC3)cc2)cc1	8.19		259 nM [falling, full curve, poor fit]
CC(C)CC(=O)Nc1nnc(S(=O)(=O)N(C)Cc2ccco2)s1			116 nM [rising, single point]
O=C(Cn1cc(C(F)(F)F)cc(Cl)c1=O)Nc1ccc(N2CCOCC2)cc1	51.7	920 nM [rising, full curve]	820 nM [rising, full curve, poor fit]
Cn1c(-c2ccccc2)cnc1NCc1ccc(F)cc1	-17.9		
c1cc(CN2CCN(C3CCCCCC3)CC2)ccn1	65.2	23100 nM [rising, single point]	
Cc1cc2ccccn2c1C(=O)c1cccc([N+](=O)[O-])c1	48.9	461 nM [rising, full curve, poor fit]	461 nM [rising, full curve, poor fit]
Cc1ccc(S(=O)(=O)N2CCOCC2)cc1NS(=O)(=O)c1ccc(F)c(F)c1	7.76		82 nM [rising, full curve, poor fit]
COc1ccc(CN2C(=O)C(O)(CC(=O)c3ccc4c(c3)OCO4)c3ccccc32)cc1OC (stereo unspecified)		65.1 nM [rising, full curve, poor fit]	
CCN(CC)S(=O)(=O)c1ccc(N2CCN(S(=O)(=O)c3ccccc3)CC2)nc1	26.2		
Cn1c(SCc2ccon2)nc2ccccc2c1=O	-11.4		5170 nM [rising, full curve]
CCOC(=O)CSc1nc(=O)n2cccc(C)c2n1	12.8	6510 nM [rising, single point]	
CN1CCN(C(=O)c2ccc3c(c2)S(=O)(=O)c2ccccc2C3=O)CC1		517 nM [rising, full curve]	1160 nM [rising, partial curve]
c1ccc2c(CSc3nnc(-c4ccncc4)o3)cccc2c1	106		1460 nM [falling, partial curve]
CCOc1ccccc1NC(=O)c1ccc(Cl)c(NC(=O)CC(c2ccccc2)c2ccccc2)c1	-24.7		29100 nM [falling, single point]
COc1ccc(CC(=O)Nc2cccc(-c3cn4ccccc4n3)c2)cc1	-1.93	146 nM [falling, full curve, poor fit]	1840 nM [rising, partial curve]
CC1CCN(C(=O)CSc2nc3c(c(=O)n2C)SC(C)C3)CC1 (stereo unspecified)	12		731 nM [falling, partial curve, poor fit]
CN(C(=O)COC(=O)CSc1cc(Cl)ccc1Cl)c1c(N)n(Cc2ccccc2)c(=O)[nH]c1=O		6510 nM [falling, single point]	5.8 nM [falling, full curve, poor fit]
Cc1sc2ncnc(N(C)Cc3ccco3)c2c1C	37.5	1840 nM [rising, full curve]	29100 nM [rising, single point]
COc1cc(OC)c(OC)cc1/C=C1\CCC/C(=C\c2cc(OC)c(OC)cc2OC)C1=O	-19.4		6510 nM [rising, single point]

Sorted by formula weight (rising): eleven of the compounds above.
Compound	cell number change [%]	AC50 [1]	AC50 [2]
Cc1ccn(CC(=O)O)c(=O)c1	-3.34		8200 nM [falling, partial curve, poor fit]
c1cc(CN2CCN(C3CCCCCC3)CC2)ccn1	65.2	23100 nM [rising, single point]	
CCOC(=O)CSc1nc(=O)n2cccc(C)c2n1	12.8	6510 nM [rising, single point]	
c1ccc2c(CSc3nnc(-c4ccncc4)o3)cccc2c1	106		1460 nM [falling, partial curve]
Cc1cc(NC(=O)c2cccnc2)ccc1NC(=O)c1ccco1	9.59		5800 nM [rising, single point]
CCOc1ccc(NC(=O)CSc2nnc(C3CC3)n2C2CC2)cc1	-13.2		51.7 nM [falling, full curve, poor fit]
COc1cc(NC(=O)c2ccccc2)ccc1NC(=O)Cc1ccccc1	-26.2		731 nM [rising, single point]
CCOC(=O)C1=C(C)NC2=C(C(=O)c3ccccc32)C1c1cccc2ccccc12 (stereo unspecified)			14600 nM [falling, partial curve]
O=C(Nc1ccccc1N1CCCC1)C1CCN(S(=O)(=O)c2ccccc2)CC1	-7.56		16400 nM [falling, partial curve]
COc1cc(OC)c(OC)cc1/C=C1\CCC/C(=C\c2cc(OC)c(OC)cc2OC)C1=O	-19.4		6510 nM [rising, single point]
CCOc1ccccc1NC(=O)c1ccc(Cl)c(NC(=O)CC(c2ccccc2)c2ccccc2)c1	-24.7		29100 nM [falling, single point]
